Results deposited as PubChem BioAssay AID1259308 (NCATS, 2017)
The whole screen tested about 59,000 reagents; below is a part drawn at random. Over the whole deposit, about 1,510 (2.6%) are marked active. 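Calls use total luciferase alone and ignore viability, so some active siRNAs may act by altering cell number.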 A number with no mark means an inactive call. Reagents against one gene are numbered here. Not all columns of the deposit are shown. No sequences are given here.

Purpose: 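Knock-downs that increase output of a recombinant reporter protein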 (primary screen)
Cell system: human HEK293 embryonic kidney cells stably expressing firefly luciferase (HEK-CMV-Luc2-Hygro)
Reagent: single siRNA against human genes, 0.8 pmol siRNA per well
Timing: 72 h
Read-out: 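Luciferase light (ONE-Glo) measured on one replicate plate set and viability (CellTiter-Glo) on the other, scaled to a negative control siRNA, with robust z-scores and luciferase per cell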
Scale: total luciferase, z-score and total luciferase, % of control: higher = more reporter protein produced; luciferase per cell, z-score: higher = more reporter output per viable cell
Active means: 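An siRNA counts as active if its total luciferase robust z-score exceeds 3; genes with two or more such siRNAs out of three were retested with fresh siRNAs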
Meaning of the calls: active = raised luciferase; inactive = no rise

Gene | reagent no. | total luciferase, z-score | total luciferase, % of control | luciferase per cell, z-score
KRT76 | 1 | -1.87 | 44.8 | -2.41
KRT76 | 2 | 0.269 | 87.2 | 0.342
KRT76 | 3 | 0.29 | 87.7 | 0.414
ZFP1 | 1 | -0.169 | 78.5 | 0.0383
ZFP1 | 2 | -1.33 | 55.5 | -1.72
ZFP1 | 3 | -0.274 | 76.4 | -1
IDH2 | 1 | 0.174 | 85.3 | -0.0136
IDH2 | 2 | 0.423 | 90.3 | -0.0128
IDH2 | 3 | 1.56 | 113 | 1.4
ZNF713 | 1 | 0.137 | 84.6 | -0.116
ZNF713 | 2 | -1.12 | 59.6 | -1.2
ZNF713 | 3 | -0.687 | 68.2 | -1.23
CST2 | 1 | -2.38 | 34.5 | -2.66
CST2 | 2 | 0.511 | 92 | 0.157
CST2 | 3 | 0.285 | 87.6 | 0.304
SRF | 1 | 0.207 | 86 | 0.944
SRF | 2 | -0.549 | 71 | -0.114
SRF | 3 | -1.5 | 52 | -1.72
PLA2R1 | 1 | 0.745 | 96.7 | 1.65
PLA2R1 | 2 | 0.238 | 86.6 | 0.303
PLA2R1 | 3 | -0.53 | 71.3 | -0.867
AFF1 | 1 | -0.216 | 77.6 | -0.165
AFF1 | 2 | 1.69 | 115 | 1.91
AFF1 | 3 | -0.659 | 68.8 | 0.0372
ATG10 | 1 | -0.224 | 77.4 | -0.395
ATG10 | 2 | -0.282 | 76.3 | -0.473
ATG10 | 3 | 1.32 | 108 | 0.606
DEFA4 | 1 | -0.00126 | 81.9 | -0.0336
DEFA4 | 2 | 0.378 | 89.4 | 0.0738
DEFA4 | 3 | 1.29 | 108 | 0.607
TJP1 | 1 | -0.617 | 69.6 | -0.263
TJP1 | 2 | 0.221 | 86.3 | 0.16
TJP1 | 3 | -1.83 | 45.5 | -1.57
MMP13 | 1 | -0.323 | 75.5 | -0.555
MMP13 | 2 | 0.169 | 85.2 | 0.0796
MMP13 | 3 | -0.741 | 67.1 | -0.403
NSG1 | 1 | 0.682 | 95.4 | 0.548
NSG1 | 2 | 1.27 | 107 | 0.596
NSG1 | 3 | 0.527 | 92.4 | 0.24
ZNF804B | 1 | -0.924 | 63.5 | -0.441
ZNF804B | 2 | 0.538 | 92.6 | 0.677
ZNF804B | 3 | 0.000529 | 81.9 | -0.0725
FLVCR2 | 1 | 1.56 | 113 | 0.923
FLVCR2 | 2 | 2.36 | 129 | 1.73
FLVCR2 | 3 | 0.234 | 86.5 | 0.117
MPLKIP | 1 | -1.34 | 55.2 | -0.979
MPLKIP | 2 | 1.92 | 120 | 1.42
MPLKIP | 3 | -0.834 | 65.3 | -0.51
AIMP2 | 1 | 2.27 | 127 | 2.75
AIMP2 | 2 | 1.13 | 104 | 0.733
AIMP2 | 3 | 1.57 | 113 | 1.52
CCDC134 | 1 | -0.133 | 79.2 | -0.135
CCDC134 | 2 | 0.279 | 87.4 | 0.833
CCDC134 | 3 | -1.56 | 50.8 | -2.26
RPL29P31 | 1 | 0.878 | 99.3 | 1.24
RPL29P31 | 2 | -1.11 | 59.8 | -1.51
RPL29P31 | 3 | 0.0202 | 82.3 | 0.475
PKNOX1 | 1 | 0.77 | 97.2 | 1.69
PKNOX1 | 2 | -1.08 | 60.4 | 0.176
PKNOX1 | 3 | -0.564 | 70.7 | -0.541
PDLIM4 | 1 | -1.11 | 59.8 | -1.1
PDLIM4 | 2 | -0.492 | 72.1 | -0.938
PDLIM4 | 3 | -2.36 | 35 | -1.74
SIGMAR1 | 1 | 2.05 | 123 | 2.51
SIGMAR1 | 2 | 1.02 | 102 | 4.94
SIGMAR1 | 3 | 4.6 (active) | 173 | 3.09
TOR3A | 1 | 0.424 | 90.3 | 0.712
TOR3A | 2 | 0.165 | 85.2 | 0.171
TOR3A | 3 | -0.752 | 66.9 | -0.405
ACSS3 | 1 | -0.794 | 66.1 | -0.55
ACSS3 | 2 | -0.0403 | 81.1 | -0.291
ACSS3 | 3 | -0.185 | 78.2 | 0.375
KNSTRN | 1 | 0.42 | 90.2 | 0.569
KNSTRN | 2 | 0.677 | 95.3 | 0.38
KNSTRN | 3 | -0.642 | 69.1 | -0.669

Active calls, of those listed so far:
Gene | reagent no. | total luciferase, z-score | total luciferase, % of control | luciferase per cell, z-score
SIGMAR1 | 3 | 4.6 (active) | 173 | 3.09
